# Measured values from publication PMC6520443, “Molecular Fingerprints for a Novel Enzyme Family in Actinobacteria with Glucosamine Kinase Activity” (mBio, 2019).
# No constants are given. Whether binding was seen depends on the method and setting. Where a sequence is shown, tags or fusion partners need not be part of it.
# B1: Streptacidiphilus jiangxiensis glucosamine kinase (SjGlcNK) (enzyme, UniProt A0A1H7TQR5 1-438)
# chain: MTPNWSELVAAADPALVLPSGERRAEVAVPGPLRLDALLDLGEGHAVGVVRSADAARWTVPLVRDGAGGVRRSRPGDGTAEHLVAALARRGATPDAAFVLEAFTGAAPVTGERGIIVDQTNESVIVGECAVVKWAVRLPAEGEPGSPAAQRIAALARGGFTEMPRPWGLLTLAEGAQPVLLASVVAYLPGALDGWDWAVDDVRRLARGELTMDQALLPAAQLGTLTARMHAALAARGRTPATAADVAAWGVRMREELDEAVASVPGAEGERLKAWAPRIADVYAELDALAGTPLIDVHGDFHVGQILRADGRYAVVDFDGNPVLPADQRAARQPAALDVVGMTASLDHVGRVVVFRTPDVDPAPVRAWIAAAQRSFLDAYRTTLARLDADDLFDDRLLTPLRYAQEVREYLYAVRHLPHWVYVPDLSLTDLLPERLKD
# Molecular target: Streptacidiphilus jiangxiensis glucosamine kinase (SjGlcNK) (Streptacidiphilus jiangxiensis)
# Assay: SAXS; SjGlcNK in solution, with and without ligands (GlcN, glucose, ATP); profiles extrapolated to infinite dilution; both purified
binder,measurement,value
B1,binding,no binding
